# Measured values as given in the supplement of paper PMC12067093, “Discovery and optimisation of a covalent ligand for TRIM25 and its application to targeted protein ubiquitination” (Chemical Science, 2025).
# Sequences of proteins named here, by UniProt entry; tags and fusion partners are left off. A change or cut given only in a name is not applied to a line headed by its entry.
# UniProt P20585: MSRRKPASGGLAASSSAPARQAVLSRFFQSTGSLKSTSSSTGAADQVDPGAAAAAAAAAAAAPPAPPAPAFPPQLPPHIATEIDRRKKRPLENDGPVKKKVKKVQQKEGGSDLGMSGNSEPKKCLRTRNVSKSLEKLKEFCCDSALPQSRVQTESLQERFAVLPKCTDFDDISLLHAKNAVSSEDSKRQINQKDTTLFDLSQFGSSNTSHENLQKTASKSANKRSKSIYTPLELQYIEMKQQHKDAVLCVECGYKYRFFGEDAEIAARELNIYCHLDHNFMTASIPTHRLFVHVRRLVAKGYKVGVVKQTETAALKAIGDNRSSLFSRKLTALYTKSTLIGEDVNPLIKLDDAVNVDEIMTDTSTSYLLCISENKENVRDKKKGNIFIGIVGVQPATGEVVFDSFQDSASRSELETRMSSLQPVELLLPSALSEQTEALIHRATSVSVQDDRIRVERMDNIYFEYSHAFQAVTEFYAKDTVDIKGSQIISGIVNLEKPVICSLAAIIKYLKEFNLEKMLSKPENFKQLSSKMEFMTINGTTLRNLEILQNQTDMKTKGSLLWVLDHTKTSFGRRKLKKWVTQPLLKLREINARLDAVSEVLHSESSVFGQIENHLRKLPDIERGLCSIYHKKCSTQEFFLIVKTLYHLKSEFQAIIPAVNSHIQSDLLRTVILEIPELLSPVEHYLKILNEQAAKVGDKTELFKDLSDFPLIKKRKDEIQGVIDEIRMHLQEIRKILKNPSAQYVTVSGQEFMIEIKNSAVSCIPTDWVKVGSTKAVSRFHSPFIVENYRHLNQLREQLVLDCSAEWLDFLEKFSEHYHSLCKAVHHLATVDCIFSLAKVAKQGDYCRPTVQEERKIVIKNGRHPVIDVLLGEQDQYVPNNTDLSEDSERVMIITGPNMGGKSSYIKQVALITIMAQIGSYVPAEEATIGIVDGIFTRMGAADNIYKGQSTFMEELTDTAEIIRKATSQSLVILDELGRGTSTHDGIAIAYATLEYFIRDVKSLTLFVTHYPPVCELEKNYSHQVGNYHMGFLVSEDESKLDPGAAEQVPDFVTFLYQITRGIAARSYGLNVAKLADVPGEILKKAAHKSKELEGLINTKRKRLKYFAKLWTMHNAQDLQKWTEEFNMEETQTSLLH
# The other results are listed elsewhere or left out.
# Biological target: MSH3_P20585_1015_SLTLFVTHYPPVCELEK (UniProt P20585)
# Assay: probe-labelled cysteine peptide fold change vs DMSO (competition) (log2 fold change); higher = less target engagement (more negative = stronger competition)
# Conditions: THP-1, incubation time: 4 h
# 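Also: competitive profiling in live THP-1 cells: cysteine peptides tagged with an iodoacetamide desthiobiotin (IA-DTB) probe, intensity after compound treatment relative to DMSO-treated cells.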
smiles,measurement,setting,value
Cc1cc(C(=O)N2CCCN(C(=O)CCl)CC2)ccc1-c1ccccc1 [compound 10],probe-labelled cysteine peptide fold change,10 µM,0.185
same,probe-labelled cysteine peptide fold change,50 µM,0.331
